Results: patent US10335452B2, “Method of treating patients with hepatorenal syndrome type 1” (Mallinckrodt Hospital Products IP Limited, priority 2014, dated 2019)
Not every detail of the peptide structures is certain; ends, links or a residue may be inferred. Positions of bridges follow the written chain, without caps; N, C: chain ends. Residues, ends and D or L forms follow the SMILES beside them.

Assays:
HRS-1 patients = details: Krag et al. Adv Ther. 2008; cited from earlier work
[1] = tested on: adult patients with HRS type 1; experiment: Randomized, placebo-controlled, double-blind study of intravenous terlipressin in HRS type 1; details: patients with HRS-1 and at least two of the three SIRS criteria, terlipressin 1 mg IV every 6 hours

In the case of `NCCCC[C@H](NC(=O)[C@@H]1CCCN1C(=O)[C@@H]1CSSC[C@H](NC(=O)CNC(=O)CNC(=O)CN)C(=O)N[C@@H](Cc2ccc(O)cc2)C(=O)N[C@@H](Cc2ccccc2)C(=O)N[C@@H](CCC(N)=O)C(=O)N[C@@H](CC(N)=O)C(=O)N1)C(=O)NCC(N)=O` [terlipressin, N—[N—(N-glycylglycyl)glycyl]-8-L-lysinevasopressin] (H-GGGCYFQNCPKG-NH2; disulfide 4-9 (inferred)), the “effective in HRS-1 patients (share of patients)” value (HRS-1 patients) is given as 33-60%, the “HRS reversal (decrease in SCr level to ≤1.5 mg/dl)” value ([1]; p<0.002 vs placebo) is given as 42.9% and the “confirmed reversal of HRS (two SCr values of ≤1.5 mg/dL at least 48 hours apart)” value ([1]; p<0.005 vs placebo) is given as 32.1%.
